Source: the supplement of paper PMC4604168 (melanoma cell lines)
The list shows a part of the results. Repeats are few or missing, and single values can be far off.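 Imaging used 1,536-well plates; nuclei positive for cleaved PARP by antibody were divided by total DNA-stained nuclei to yield the apoptosis fraction. Doses for screening kept most cells viable, and cell lines differ markedly in resting and induced cleaved-PARP levels.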

What was measured:
Experiment in all cases: cleaved PARP positive nuclei fraction relative to DMSO control; melanoma cells; higher = more apoptosis
Settings in all cases: library dose: low library concentration; 72 h
CBRC034 = tested on: CBRC034 (line from a melanoma biopsy)
COLO792 = tested on: COLO792
COLO800 = tested on: COLO800
COLO829 = tested on: COLO829
G361 = tested on: G361
IPC-298 = tested on: IPC-298
IST-MEL1 = tested on: IST-MEL1
LB2518-MEL = tested on: LB2518-MEL
LOXIMVI = tested on: LOXIMVI
MEL-HO = tested on: MEL-HO
MZ2-MEL = tested on: MZ2-MEL
MeWo = tested on: MeWo
RPMI7951 = tested on: RPMI7951
RVH-421 = tested on: RVH-421
SkMel28 = tested on: SkMel28
SkMel2 = tested on: SkMel2
SkMel30 = tested on: SkMel30
UACC62 = tested on: UACC62

SMILES	cleaved PARP positive nuclei fraction (CBRC034)	cleaved PARP positive nuclei fraction (COLO792)	cleaved PARP positive nuclei fraction (COLO800)	cleaved PARP positive nuclei fraction (COLO829)	cleaved PARP positive nuclei fraction (G361)	cleaved PARP positive nuclei fraction (IPC-298)	cleaved PARP positive nuclei fraction (IST-MEL1)	cleaved PARP positive nuclei fraction (LB2518-MEL)	cleaved PARP positive nuclei fraction (LOXIMVI)	cleaved PARP positive nuclei fraction (MEL-HO)	cleaved PARP positive nuclei fraction (MZ2-MEL)	cleaved PARP positive nuclei fraction (MeWo)	cleaved PARP positive nuclei fraction (RPMI7951)	cleaved PARP positive nuclei fraction (RVH-421)	cleaved PARP positive nuclei fraction (SkMel28)	cleaved PARP positive nuclei fraction (SkMel2)	cleaved PARP positive nuclei fraction (SkMel30)	cleaved PARP positive nuclei fraction (UACC62)
O=C(/C=C/c1cccnc1)NCCCCC1CCN(C(=O)c2ccccc2)CC1 + Cc1nc(Nc2ncc(C(=O)Nc3c(C)cccc3Cl)s2)cc(N2CCN(CCO)CC2)n1 [dasatanib] (first compound 0.01 µM, partner dose 0.004 µM)	2580%	285%	553%	231%	3020%	1100%	199%	96.7%	232%	280%	1140%	81.9%	84.2%	271%	50.3%	1050%	125%	192%
O=C(Nc1cc(C(F)(F)F)cc(C(F)(F)F)c1)c1cc(Cl)ccc1O + CNC(=O)c1cc(Oc2ccc(NC(=O)Nc3ccc(Cl)c(C(F)(F)F)c3)cc2)ccn1 [sorafenib] (first compound 0.016 µM, partner dose 0.4 µM)	121%	56.7%	97.7%	105%	128%	92.2%	85.8%	27.5%	127%	133%	37.7%	110%	53.7%	194%	286%	37.5%	126%	211%
Cc1cc(Nc2cc(N3CCN(C)CC3)nc(Sc3ccc(NC(=O)C4CC4)cc3)n2)n[nH]1 [Tozasertib] + Cc1nc(Nc2ncc(C(=O)Nc3c(C)cccc3Cl)s2)cc(N2CCN(CCO)CC2)n1 [dasatanib] (first compound 0.006 µM, partner dose 0.004 µM)	48.6%	113%	159%	159%	161%	143%	207%	204%	132%	107%	86%	43.3%	122%	304%	97.4%	84.1%	63.3%	122%
O=C(/C=C/c1cccnc1)NCCCCC1CCN(C(=O)c2ccccc2)CC1 + Cc1cn(-c2cc(NC(=O)c3ccc(C)c(Nc4nccc(-c5cccnc5)n4)c3)cc(C(F)(F)F)c2)cn1 [nilotinib] (first compound 0.01 µM, partner dose 0.2 µM)	2230%	409%	181%	234%	7370%	376%	193%	275%	212%	150%	538%	100%	99.6%	128%	99%	5350%	105%	181%
Cc1ccc(Nc2nccc(N(C)c3ccc4c(C)n(C)nc4c3)n2)cc1S(N)(=O)=O [Pazopanib] + CN(c1ncccc1CNc1nc(Nc2ccc3c(c2)CC(=O)N3)ncc1C(F)(F)F)S(C)(=O)=O [PF562271] (first compound 0.4 µM, partner dose 0.08 µM)	28.2%	64.1%	82.6%	145%	68.3%	50.4%	57%	100%	81.2%	62.5%	147%	155%	173%	36.8%	172%	119%	93.8%	37.1%
O=c1[nH]nc(Sc2ncc([N+](=O)[O-])s2)n1-c1ccc2c(c1)OCCO2 + Cn1sc(=O)n(Cc2ccccc2)c1=O [TDZD-8] (first compound 0.2 µM, partner dose 0.4 µM)	30.4%	117%	80.9%	125%	74.7%	59.1%	138%	138%	98.3%	92.2%	52.9%	126%	122%	142%	85.4%	50.5%	25.8%	111%
COc1cc([C@@H]2c3cc4c(cc3[C@@H](O[C@@H]3O[C@@H]5CO[C@@H](C)O[C@H]5[C@H](O)[C@H]3O)[C@H]3COC(=O)[C@H]23)OCO4)cc(OC)c1O [etoposide] + Cc1ccc(Nc2nccc(N(C)c3ccc4c(C)n(C)nc4c3)n2)cc1S(N)(=O)=O [Pazopanib] (first compound 0.02 µM, partner dose 0.4 µM)	32.7%	93.3%	134%	71.4%	155%	34.6%	64.3%	24.9%	61.9%	80.7%	106%	75.4%	95.6%	358%	156%	82.7%	86.7%	43.1%
O=C(Nc1cc(C(F)(F)F)cc(C(F)(F)F)c1)c1cc(Cl)ccc1O + CC(C)C[C@H](NC(=O)[C@H](Cc1ccccc1)NC(=O)c1cnccn1)B(O)O [Bortezomib] (first compound 0.016 µM, partner dose 0.001 µM)	234%	199%	52.7%	144%	185%	125%	128%	254%	81.6%	41.5%	15.6%	133%	85.9%	47.5%	90.5%	46%	121%	94.1%
CCCCCCCCCCCCCCCCCCOP(=O)([O-])OC1CC[N+](C)(C)CC1 [Perifosine] + NC(=O)c1ccc(N(C(N)=O)c2c(F)cccc2F)nc1-c1ccc(F)cc1F [VX702] (first compound 0.4 µM, partner dose 0.4 µM)	70.5%	249%	105%	67.7%	196%	118%	32%	56.4%	142%	177%	77%	71%	84.1%	104%	62.2%	84.9%	107%	101%
Cc1ccc(Nc2nccc(N(C)c3ccc4c(C)n(C)nc4c3)n2)cc1S(N)(=O)=O [Pazopanib] + Nc1cccc2c1CN(C1CCC(=O)NC1=O)C2=O [lenalidomide] (first compound 0.4 µM, partner dose 1 µM)	34.6%	91.1%	71.2%	127%	97.8%	105%	56.9%	115%	272%	80.7%	126%	68.7%	51%	115%	24.8%	125%	142%	92.6%
CC[C@]1(O)C[C@H]2CN(CCc3c([nH]c4ccccc34)[C@@](C(=O)OC)(c3cc4c(cc3OC)N(C=O)[C@H]3[C@@](O)(C(=O)OC)[C@H](OC(C)=O)[C@]5(CC)C=CCN6CC[C@]43[C@@H]65)C2)C1 [vincristine] + O=c1[nH]nc(Sc2ncc([N+](=O)[O-])s2)n1-c1ccc2c(c1)OCCO2 [BI78D3] (first compound 0.0001 µM, partner dose 0.2 µM)	47.1%	94.2%	159%	195%	66.4%	46.7%	78.3%	51.3%	233%	68%	70.7%	126%	254%	64.5%	43.1%	84.5%	355%	211%
Cc1ccc(Nc2nccc(N(C)c3ccc4c(C)n(C)nc4c3)n2)cc1S(N)(=O)=O [Pazopanib] + C[C@@H](N)c1ccc(C(=O)Nc2ccnc3[nH]ccc23)cc1 [RKI983] (first compound 0.4 µM, partner dose 0.4 µM)	60.9%	92.5%	41.6%	137%	174%	64.5%	243%	46.8%	243%	47%	117%	139%	58.4%	174%	129%	75.3%	57.6%	84.2%
COc1cc([C@@H]2c3cc4c(cc3[C@@H](O[C@@H]3O[C@@H]5CO[C@@H](C)O[C@H]5[C@H](O)[C@H]3O)[C@H]3COC(=O)[C@H]23)OCO4)cc(OC)c1O [etoposide] + CC(=O)O[C@@]12CO[C@@H]1C[C@H](O)[C@@]1(C)C(=O)[C@H](O)C3=C(C)[C@@H](OC(=O)[C@H](O)[C@@H](NC(=O)OC(C)(C)C)c4ccccc4)C[C@@](O)([C@@H](OC(=O)c4ccccc4)[C@H]21)C3(C)C [Docetaxel] (first compound 0.02 µM, partner dose 0.0001 µM)	69.1%	343%	139%	288%	571%	354%	177%	62.2%	240%	142%	267%	767%	135%	405%	283%	394%	288%	237%
O=C(/C=C/c1cccnc1)NCCCCC1CCN(C(=O)c2ccccc2)CC1 + NC(=O)c1ccc(N(C(N)=O)c2c(F)cccc2F)nc1-c1ccc(F)cc1F [VX702] (first compound 0.01 µM, partner dose 0.4 µM)	1510%	207%	260%	139%	2890%	280%	180%	42.4%	64.3%	176%	805%	72.7%	57.9%	217%	197%	1040%	97.2%	263%
Cc1ccc(Nc2nccc(N(C)c3ccc4c(C)n(C)nc4c3)n2)cc1S(N)(=O)=O [Pazopanib] + NC1(c2ccc(-c3nc4ccn5c(=O)[nH]nc5c4cc3-c3ccccc3)cc2)CCC1 [MK2206] (first compound 0.4 µM, partner dose 0.4 µM)	135%	117%	119%	83.8%	197%	72.8%	88.8%	92%	50.7%	107%	80%	31.9%	142%	96.1%	164%	73.8%	70.5%	145%
Cc1cc(Nc2cc(N3CCN(C)CC3)nc(Sc3ccc(NC(=O)C4CC4)cc3)n2)n[nH]1 [Tozasertib] + Cc1cn(-c2cc(NC(=O)c3ccc(C)c(Nc4nccc(-c5cccnc5)n4)c3)cc(C(F)(F)F)c2)cn1 [nilotinib] (first compound 0.006 µM, partner dose 0.2 µM)	61.7%	50.5%	77.1%	63.8%	237%	89.1%	208%	53.5%	63.1%	45.8%	88.6%	193%	103%	160%	78%	65.6%	66.9%	88.1%
Cc1cn(-c2cc(NC(=O)c3ccc(C)c(Nc4nccc(-c5cccnc5)n4)c3)cc(C(F)(F)F)c2)cn1 [nilotinib] + Cn1c(=O)n(-c2ccc(C(C)(C)C#N)cc2)c2c3cc(-c4cnc5ccccc5c4)ccc3ncc21 [NVP-BEZ235] (first compound 0.2 µM, partner dose 0.004 µM)	55.9%	136%	132%	72.8%	53.8%	173%	65.6%	111%	105%	76.6%	25%	24.5%	52.2%	63.8%	70.3%	92.7%	88.4%	95.9%

An excerpt of these results, as a markdown table.

| SMILES | cleaved PARP positive nuclei fraction (CBRC034) | cleaved PARP positive nuclei fraction (COLO792) | cleaved PARP positive nuclei fraction (COLO800) | cleaved PARP positive nuclei fraction (COLO829) | cleaved PARP positive nuclei fraction (G361) | cleaved PARP positive nuclei fraction (IPC-298) | cleaved PARP positive nuclei fraction (IST-MEL1) | cleaved PARP positive nuclei fraction (LB2518-MEL) | cleaved PARP positive nuclei fraction (LOXIMVI) | cleaved PARP positive nuclei fraction (MEL-HO) | cleaved PARP positive nuclei fraction (MZ2-MEL) | cleaved PARP positive nuclei fraction (MeWo) | cleaved PARP positive nuclei fraction (RPMI7951) | cleaved PARP positive nuclei fraction (RVH-421) | cleaved PARP positive nuclei fraction (SkMel28) | cleaved PARP positive nuclei fraction (SkMel2) | cleaved PARP positive nuclei fraction (SkMel30) | cleaved PARP positive nuclei fraction (UACC62) |
| --- | --- | --- | --- | --- | --- | --- | --- | --- | --- | --- | --- | --- | --- | --- | --- | --- | --- | --- |
| Cc1cc(Nc2cc(N3CCN(C)CC3)nc(Sc3ccc(NC(=O)C4CC4)cc3)n2)n[nH]1 [Tozasertib] + Cc1nc(Nc2ncc(C(=O)Nc3c(C)cccc3Cl)s2)cc(N2CCN(CCO)CC2)n1 [dasatanib] (first compound 0.006 µM, partner dose 0.004 µM) | 48.6% | 113% | 159% | 159% | 161% | 143% | 207% | 204% | 132% | 107% | 86% | 43.3% | 122% | 304% | 97.4% | 84.1% | 63.3% | 122% |
| O=C(/C=C/c1cccnc1)NCCCCC1CCN(C(=O)c2ccccc2)CC1 + Cc1cn(-c2cc(NC(=O)c3ccc(C)c(Nc4nccc(-c5cccnc5)n4)c3)cc(C(F)(F)F)c2)cn1 [nilotinib] (first compound 0.01 µM, partner dose 0.2 µM) | 2230% | 409% | 181% | 234% | 7370% | 376% | 193% | 275% | 212% | 150% | 538% | 100% | 99.6% | 128% | 99% | 5350% | 105% | 181% |
